Assay results published in PubChem BioAssay AID2685 (National Center for Advancing Translational Sciences (NCATS), 2010).
This is one part of the list. These are further read-outs of the screen, such as a control signal, another cell line or another target. No call is given for them. Most of these compounds were active or inconclusive in the main read-out, so they are no random draw. The note in brackets gives the kind of curve behind each potency; many fits are weak.

Assay: qHTS Assay for Lipid Storage Modulators in Drosophila S3 Cells;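 on cell number change: cells counted by Cell Tracker Red CMTPX staining in the red channel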
Conditions: BODIPY lipid droplet fluorescence, 18-24 h; for cell number change: measured here: cell count max response, cells fed with added oleic acid
Summary of the method: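 Laser-scanning cytometry quantifies lipid droplet accumulation (500–530 nm total intensity; droplet/cell object ratio) in oleic acid-fed (400 uM added) Drosophila S3 cells treated with a concentration series. 20 uM Triacsin C defined 100% inhibition.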

[1] = measured here: lipid fluorescence (Fed channel) AC50, cells fed with added oleic acid
[2] = measured here: cell number channel AC50, cells fed with added oleic acid

| SMILES | cell number change [%] | AC50 [1] | AC50 [2] |
| --- | --- | --- | --- |
| COc1ccc(C(=O)N2CCN(c3ncccn3)CC2)cc1 | 10.2 | 0.0259 µM [falling, full curve, poor fit] | – |
| COc1ccc(NC(=O)CN(C)C(=O)c2c(C)nn(Cc3ccccc3)c2C)cc1 | -6.04 | 5.8 µM [rising, full curve, poor fit] | – |
| NC(=O)CN1CCN(C(=O)Nc2ccccc2)CC1 | -55.4 | 14.6 µM [falling, partial curve] | 23.1 µM [falling, partial curve, poor fit] |
| Cc1ccc2nc(SCC(=O)N3CCCCCC3)nc(=O)n2c1 | – | – | 2.91 µM [rising, partial curve] |
| CCn1c(-c2cc(-c3ccc(OC(C)C)cc3)nc3ccccc23)n[nH]c1=S | 10.3 | 2.31 µM [rising, partial curve] | – |
| O=C(NC1CCSc2ccccc21)c1ccc([N+](=O)[O-])cc1 (stereo not drawn) | 32.4 | 13 µM [rising, partial curve] | 6.51 µM [rising, single point] |
| C=COC(=O)CSc1snc(SCC(=O)OC)c1C#N | -50.4 | 3.66 µM [falling, full curve] | 0.411 µM [falling, full curve] |
| O=C1NC2(CCCCCC2)C(=O)N1Cc1ccccc1Br | 24.6 | 18.4 µM [rising, partial curve] | – |
| Cc1ncsc1C(=O)N1CCCC(C(=O)c2ccc3ccccc3c2)C1 (stereo not drawn) | 15.1 | 1.3 µM [rising, partial curve] | – |
| COc1c(Cl)cc(Cl)cc1CNCCO | 2.76 | 5.17 µM [falling, single point] | – |
| N#C/C(=C/c1ccccc1)C(=O)NCc1ccccc1 | – | 2.31 µM [falling, full curve] | – |
| Cc1ccccc1C(=O)NCCCNC(=O)c1ccccn1 | 9.52 | 14.6 µM [rising, single point] | – |
| O=C(COc1ccccc1[N+](=O)[O-])NCc1cccnc1 | -36.7 | – | 5.8 µM [falling, partial curve] |
| CCCCn1nnnc1SCC(=O)NCc1ccccc1 | -8.27 | 0.00517 µM [falling, full curve, poor fit] | – |
| CCCCn1c(N)c(N(CCC(C)C)C(=O)c2ccc(C)c(S(=O)(=O)N3CCOCC3)c2)c(=O)[nH]c1=O | -18.2 | – | – |
| O=C(NC(=S)N1CCCc2ccccc21)c1ccc(Cl)cc1 | 0.94 | – | – |
| Cc1cc(C)c2[nH]c(=O)c(CN(Cc3cccs3)C(=S)NCc3ccco3)cc2c1 | 4.35 | 0.517 µM [rising, single point] | – |
| Cc1nnc(NC(=O)c2cccc(S(=O)(=O)N(C)c3cccc(Cl)c3)c2)s1 | 9.8 | 2.06 µM [rising, partial curve, poor fit] | – |
| O=C(CCc1ccccc1)N1CCN(c2ccc([N+](=O)[O-])cc2)CC1 | – | 0.58 µM [rising, single point] | – |
| CNS(=O)(=O)c1cccc(C(=O)OCC(=O)c2cc(C)n(CC3CCCO3)c2C)c1 (stereo not drawn) | 2.76 | 2.31 µM [rising, full curve, poor fit] | – |
| Cc1ccc(C(=O)c2ccccc2C(=O)OCC(=O)NC(=O)NC(C)(C)C)cc1 | 82.2 | – | 23.1 µM [rising, partial curve] |

| SMILES | cell number change [%] | AC50 [1] | AC50 [2] |
| --- | --- | --- | --- |
| COc1ccc(Cl)cc1NC(=O)c1c(-c2ccccc2)noc1C | -6.49 | 3.66 µM [rising, full curve] | – |
| O=C(OCCN1C(=O)c2cccc3c(N4CCOCC4)ccc(c23)C1=O)c1ccc(Cl)cc1 | -21.7 | – | – |
| O=C(N/N=C/c1ccc([N+](=O)[O-])o1)c1cn(-c2ccccc2)nc1-c1ccc(F)cc1 | 6.69 | – | – |
| O=C(Nc1ccc(N2CCOCC2)c(Cl)c1)c1ccco1 | 12.3 | 7.31 µM [falling, partial curve] | – |
| COC(=O)CC1(C(=O)OC)Oc2ccc(Br)cc2C(=O)N1c1ccc(Br)cc1Cl (stereo not drawn) | -39.5 | 29.1 µM [falling, single point] | 18.4 µM [falling, single point] |
| CCC(=O)NC(=S)Nc1ccccc1F | 0.586 | 29.1 µM [falling, single point] | – |
| COc1cc(/C=C(\C#N)C(=O)NC2CCCCC2)ccc1OCc1ccc(C(=O)O)cc1 | -20.6 | 29.1 µM [falling, single point] | – |
| COc1ccc(CC(=O)Oc2ccccc2[N+](=O)[O-])cc1 | -9.39 | – | – |
| COc1ccc(-n2nc(C(=O)NCC3CCCO3)c3ccccc3c2=O)cc1 (stereo not drawn) | -20 | 29.1 µM [falling, single point] | – |
| COc1ccccc1C(=O)Nc1ccc(Oc2ncnc3sc(-c4ccccc4)cc23)cc1 | 1.13 | – | – |
| CCc1ccc(NC(=O)c2cc(C)no2)cc1 | -36 | – | 29.1 µM [falling, single point] |
| CN(C)CCCN(C(=O)c1ccc2c(c1)CCCC2)c1nc2ccc(F)cc2s1 | -39.8 | 29.1 µM [falling, single point] | 29.1 µM [falling, single point] |
| CCOC(=O)c1[nH]c2c(c1C)C(=O)CC(c1ccc(OC)c(OC)c1)C2 (stereo not drawn) | 34.7 | 1.03 µM [rising, single point] | 1.16 µM [rising, full curve] |
| Cc1ccc(OCCn2cccn2)c(C)c1 | 27.6 | 14.6 µM [rising, partial curve, poor fit] | – |
| CCN(CC)c1nc(Nc2ccccc2)nc(Oc2ccc(=O)n(C)n2)n1 | -14.6 | – | – |
| CCC(C)Sc1ccc([C@H]2N[C@@](CC(C)C)(C(=O)OC)[C@H]3C(=O)N(C)C(=O)[C@@H]23)cc1 (stereo partly drawn) | -78 | 2.91 µM [falling, partial curve, poor fit] | 20.6 µM [falling, partial curve] |
| CC/C(=C\C1CCCCC1)C(NP(=O)(c1ccccc1)c1ccccc1)c1ccccc1 (stereo not drawn) | -86.9 | 29.1 µM [falling, single point] | 25.9 µM [falling, single point] |
| Cc1cc(C)c(C(N)=O)c(Cl)n1 | 54.8 | – | 0.651 µM [rising, full curve] |
| CCC(CO)Oc1cc(NCc2ccc(OC)cc2)c2ncn(C(C)C)c2c1 (stereo not drawn) | -19.4 | – | – |
| O=C(CCN1C(=O)CSC1=O)Nc1ccccc1 | 14.5 | – | – |
| COc1cc(CN2CC(=O)N(c3ccc(C)c(Cl)c3)C2=S)cc(OC)c1OC | 18.1 | 20.6 µM [rising, partial curve, poor fit] | – |

An excerpt from above in order of count of non-hydrogen atoms, ascending.

| SMILES | cell number change [%] | AC50 [1] | AC50 [2] |
| --- | --- | --- | --- |
| C=COC(=O)CSc1snc(SCC(=O)OC)c1C#N | -50.4 | 3.66 µM [falling, full curve] | 0.411 µM [falling, full curve] |
| COc1ccc(CC(=O)Oc2ccccc2[N+](=O)[O-])cc1 | -9.39 | – | – |
| COc1ccc(C(=O)N2CCN(c3ncccn3)CC2)cc1 | 10.2 | 0.0259 µM [falling, full curve, poor fit] | – |
| Cc1ccc2nc(SCC(=O)N3CCCCCC3)nc(=O)n2c1 | – | – | 2.91 µM [rising, partial curve] |
| COc1ccc(Cl)cc1NC(=O)c1c(-c2ccccc2)noc1C | -6.49 | 3.66 µM [rising, full curve] | – |
| CCN(CC)c1nc(Nc2ccccc2)nc(Oc2ccc(=O)n(C)n2)n1 | -14.6 | – | – |
| Cc1ccc(C(=O)c2ccccc2C(=O)OCC(=O)NC(=O)NC(C)(C)C)cc1 | 82.2 | – | 23.1 µM [rising, partial curve] |
| CNS(=O)(=O)c1cccc(C(=O)OCC(=O)c2cc(C)n(CC3CCCO3)c2C)c1 (stereo not drawn) | 2.76 | 2.31 µM [rising, full curve, poor fit] | – |
| O=C(N/N=C/c1ccc([N+](=O)[O-])o1)c1cn(-c2ccccc2)nc1-c1ccc(F)cc1 | 6.69 | – | – |
| CC/C(=C\C1CCCCC1)C(NP(=O)(c1ccccc1)c1ccccc1)c1ccccc1 (stereo not drawn) | -86.9 | 29.1 µM [falling, single point] | 25.9 µM [falling, single point] |
| O=C(OCCN1C(=O)c2cccc3c(N4CCOCC4)ccc(c23)C1=O)c1ccc(Cl)cc1 | -21.7 | – | – |
| CCCCn1c(N)c(N(CCC(C)C)C(=O)c2ccc(C)c(S(=O)(=O)N3CCOCC3)c2)c(=O)[nH]c1=O | -18.2 | – | – |

The list goes on:

| SMILES | cell number change [%] | AC50 [1] | AC50 [2] |
| --- | --- | --- | --- |
| Cc1cc(C(=O)N2CCCC(Nc3ccc(F)cc3)C2)n(C)n1 (stereo not drawn) | 19.4 | 0.103 µM [rising, full curve, poor fit] | – |
| COc1ccc(C(=O)O)cc1N1C(=O)Nc2ccccc2N1O | -46.7 | – | – |
| C=CCc1c(C)nc(SC(C)C)[nH]c1=O | -9.4 | 0.13 µM [falling, full curve, poor fit] | – |
| COc1ccc(-c2nnc3ccc(SCC(=O)NCc4ccco4)nn23)cc1OC | -56.4 | 0.82 µM [rising, single point] | 29.1 µM [falling, single point] |
| Cc1c(NC(=S)NC(=O)C(c2ccccc2)c2ccccc2)cccc1C(=O)O | 8.23 | 29.1 µM [rising, single point] | – |
| COC(=O)c1cc(NC2c3ncccc3C(=O)N2Cc2ccccc2)cc(C(=O)OC)c1 (stereo not drawn) | -10.5 | 0.731 µM [rising, single point] | – |
| COc1ccc(OCC(=O)O/N=C(\N)Cc2ccc(Cl)cc2)cc1 | 39.7 | – | 29.1 µM [rising, single point] |
| N#Cc1nc(-c2ccccc2F)oc1NCCc1ccccc1 | -11.5 | 0.00517 µM [falling, full curve, poor fit] | – |
| COC(=O)CSc1nnc(CNS(=O)(=O)c2ccc(C)cc2)n1C | -8.92 | – | – |
| C#CCOCCOCCOCCNc1nc(N2CCN(C(=O)CCCCCCCCCCNC(=O)[C@H]([C@@H](C)CC)n3cc(CCCCCN)nn3)CC2)nc(N2CCN(C(=O)CCCCCCCCCCNC(=O)[C@H](CCCCN)n3cc(CCCC(=O)O)nn3)CC2)n1 | -53.7 | 0.92 µM [falling, full curve] | 1.03 µM [falling, full curve] |
| C/C(=N\NC(=O)c1ccccc1C)c1cccnc1 | 13.3 | 29.1 µM [rising, single point] | – |
| c1ccc(C[C@H]2CN=C(Nc3ccccc3)N2CCCC2CCCC2)cc1 | 12.6 | 16.4 µM [falling, single point] | – |
| COc1ccc(C(=O)/C=C/c2ccc(N3CCCCC3)c([N+](=O)[O-])c2)cc1 | -28.8 | 14.6 µM [falling, single point] | – |
| Cc1ccc(NC(=S)N(CCCN2CCN(C)CC2)Cc2cccs2)cc1C | 10.7 | 5.8 µM [rising, partial curve] | – |
| CCn1c(SCC(=O)c2ccccc2)nnc1-c1cccs1 | 19.3 | – | – |
| O=C(CCc1nnc2ccc(NCc3ccc(F)cc3)nn12)NC1CCCC1 | 16.5 | 29.1 µM [falling, single point] | – |
| Cn1cnc2c(N3CCCCC3)nccc21 | -1.66 | 20.6 µM [falling, partial curve] | 0.411 µM [falling, full curve] |
| O=S(=O)(CCc1ccncc1)C1Cc2cccc3cccc1c23 (stereo not drawn) | 41.2 | 6.51 µM [rising, partial curve, poor fit] | 29.1 µM [rising, single point] |
| Cc1ccc(Cn2nnc3c(=O)[nH]c(C4CCN(S(=O)(=O)Cc5ccccc5)CC4)nc32)cc1 | 2.94 | – | – |
